Measured values from doi:10.1101/2024.06.26.24309360.

How the values were obtained:
[1] = target: T1, ThPOK K360N (Homo sapiens) (UniProt O15156); assay: EMSA; details: protein in a lysate after overexpression
T1 sequence (looked up, limits assumed): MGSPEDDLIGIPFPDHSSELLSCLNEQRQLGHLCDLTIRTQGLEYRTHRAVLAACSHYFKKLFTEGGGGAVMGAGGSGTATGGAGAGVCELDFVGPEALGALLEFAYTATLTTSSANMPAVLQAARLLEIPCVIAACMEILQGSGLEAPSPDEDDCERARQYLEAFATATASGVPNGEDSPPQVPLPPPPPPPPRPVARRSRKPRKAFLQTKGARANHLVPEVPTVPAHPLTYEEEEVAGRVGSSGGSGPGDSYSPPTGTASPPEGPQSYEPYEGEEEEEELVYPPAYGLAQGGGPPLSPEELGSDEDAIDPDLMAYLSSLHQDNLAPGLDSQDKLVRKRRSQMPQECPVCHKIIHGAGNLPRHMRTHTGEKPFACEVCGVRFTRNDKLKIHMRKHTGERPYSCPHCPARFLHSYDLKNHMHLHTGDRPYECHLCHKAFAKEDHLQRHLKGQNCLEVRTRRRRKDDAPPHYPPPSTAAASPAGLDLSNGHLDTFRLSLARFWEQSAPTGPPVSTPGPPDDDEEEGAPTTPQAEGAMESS

[2] = target: T2, ThPOK WT (Homo sapiens) (UniProt O15156); assay: EMSA supershift; details: anti-ThPOK antibody supershift; protein in a lysate after overexpression
T2 sequence (looked up, limits assumed): T1 sequence (looked up, limits assumed) with N360K

Row | Sequence | binding result [1] | binding result [2]
1 | CAAATTACAGCCCCATCCCCCGACCGCCCACCATC (double strand) [Variant Probe 1] | binds | 
2 | CAAATTACAGCCCCCTCCACCGACCGCCCACCATC (double strand) [Variant Probe 2] | binds | 
3 | CAAATTACAGCCCCGACCACCGACCGCCCACCATC (double strand) [SOCS1 promoter probe] |  | binds

Changes are numbered by the printed parent chain. Construct, isoform or probe ends are uncertain for at least one entry. Where cells or extracts were used, other partners may take part. Tags and fusion partners may be left off the protein sequences shown.
